Measured data: PubChem BioAssay AID652243 (Drosophila RNAi Screening Center, 2013)
Assay: 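Knock-downs that decrease or increase androgen receptor reporter signal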 (primary screen). System: Drosophila S2R+ cells. Reagent: long dsRNA against Drosophila genes. Duration: 72 h (48 h, then 24 h hormone). Challenge: synthetic androgen R1881 at 10 nM for 24 h. Read-out: 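Firefly light from an androgen-responsive reporter and Renilla control light per well, raw and unnormalised, for each of two replicates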. Reading the numbers: firefly reporter light: higher = more light from androgen-responsive reporter; Renilla control light: higher = more constitutive control signal (cell number, transfection). Active means: 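Hit when the log firefly-to-Renilla ratio dropped or increased by a fixed fold versus the mean of GFP or LacZ controls across duplicate plates; lowering cut given as 1.5 and as 3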. Meaning of the calls: active = hit: reporter lowered or raised; inactive = no hit.
The screen tested about 24,000 reagents; below is a random part of those that have a named target and a result. Over the whole deposit, 246 (1%) got an active call. 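Plates not normalised; calls are printed but the firefly/Renilla ratio behind them is not deposited; fold cut for lowering reported inconsistently.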 The raw values are shown without normalisation. Reagent sequences are not shown. Not given: the amount of reagent.

Silencing of Papst2 (PAPS transporter 2) [DRSC10924] gave: firefly reporter light, replicate 1 = 45195; firefly reporter light, replicate 2 = 40983; Renilla control light, replicate 1 = 4.46e5; Renilla control light, replicate 2 = 3.50e5; inactive.
Papst2 (PAPS transporter 2) [DRSC27212] scored firefly reporter light, replicate 1 = 2.78e5; firefly reporter light, replicate 2 = 2.47e5; Renilla control light, replicate 1 = 5.38e5; Renilla control light, replicate 2 = 5.25e5; inactive.
Against Smyd5 (SET and MYND domain containing, class 5) [DRSC15483], the values are firefly reporter light, replicate 1 = 2.41e5; firefly reporter light, replicate 2 = 1.95e5; Renilla control light, replicate 1 = 3.09e6; Renilla control light, replicate 2 = 3.14e6; inactive.
For Ir10a (Ionotropic receptor 10a) [DRSC18891], the values are firefly reporter light, replicate 1 = 1.03e6; firefly reporter light, replicate 2 = 7.33e5; Renilla control light, replicate 1 = 7.70e5; Renilla control light, replicate 2 = 3.34e5; inactive.
After knock-down of Ir10a (Ionotropic receptor 10a) [DRSC19478] the results were firefly reporter light, replicate 1 = 3.74e5; firefly reporter light, replicate 2 = 2.88e5; Renilla control light, replicate 1 = 3.08e6; Renilla control light, replicate 2 = 2.68e6; inactive.
Ir10a (Ionotropic receptor 10a) [DRSC19479] showed firefly reporter light, replicate 1 = 3.30e5; firefly reporter light, replicate 2 = 3.62e5; Renilla control light, replicate 1 = 2.69e6; Renilla control light, replicate 2 = 2.65e6; inactive.
Knock-down of CG34282 [DRSC16298] came out at: firefly reporter light, replicate 1 = 2.61e5; firefly reporter light, replicate 2 = 3.68e5; Renilla control light, replicate 1 = 3.07e6; Renilla control light, replicate 2 = 3.10e6; inactive.
Against pico [DRSC19430], the entry reads firefly reporter light, replicate 1 = 1.30e5; firefly reporter light, replicate 2 = 57741; Renilla control light, replicate 1 = 5.67e5; Renilla control light, replicate 2 = 2.16e5; inactive.

2 entries from above, set out differently:
{"gene":"Papst2 (PAPS transporter 2)","dsRNA":"DRSC10924","firefly reporter light, replicate 1":45195,"firefly reporter light, replicate 2":40983,"Renilla control light, replicate 1":4.46e5,"Renilla control light, replicate 2":3.50e5,"outcome":"inactive"}
{"gene":"Papst2 (PAPS transporter 2)","dsRNA":"DRSC27212","firefly reporter light, replicate 1":2.78e5,"firefly reporter light, replicate 2":2.47e5,"Renilla control light, replicate 1":5.38e5,"Renilla control light, replicate 2":5.25e5,"outcome":"inactive"}

The listing continues.
Depletion of GILT3 (Gamma-interferon-inducible lysosomal thiol reductase 3) [DRSC14672] resulted in: firefly reporter light, replicate 1 = 2.83e5; firefly reporter light, replicate 2 = 2.63e5; Renilla control light, replicate 1 = 2.58e6; Renilla control light, replicate 2 = 2.81e6; inactive.
Pp2C1 (Protein phosphatase 2C) [DRSC23287] showed firefly reporter light, replicate 1 = 1.06e6; firefly reporter light, replicate 2 = 9.99e5; Renilla control light, replicate 1 = 1.22e6; Renilla control light, replicate 2 = 1.25e6; inactive.
Pp2C1 (Protein phosphatase 2C) [DRSC28091] showed firefly reporter light, replicate 1 = 4.95e5; firefly reporter light, replicate 2 = 6.24e5; Renilla control light, replicate 1 = 1.54e6; Renilla control light, replicate 2 = 1.45e6; inactive.
After knock-down of Pp2C1 (Protein phosphatase 2C) [DRSC36737], the screen gave inactive.
Against CG3732 [DRSC04410], the values are firefly reporter light, replicate 1 = 4.67e5; firefly reporter light, replicate 2 = 1.02e5; Renilla control light, replicate 1 = 8.13e5; Renilla control light, replicate 2 = 4.10e5; inactive.
After knock-down of CG3732 [DRSC25057], the screen gave firefly reporter light, replicate 1 = 7.98e5; firefly reporter light, replicate 2 = 8.34e5; Renilla control light, replicate 1 = 1.31e6; Renilla control light, replicate 2 = 1.16e6; inactive.
After knock-down of Pfk (Phosphofructokinase) [DRSC07506], the record shows firefly reporter light, replicate 1 = 6.83e5; firefly reporter light, replicate 2 = 5.40e5; Renilla control light, replicate 1 = 1.46e6; Renilla control light, replicate 2 = 1.03e6; inactive.
After knock-down of Pfk (Phosphofructokinase) [DRSC27413], the screen gave firefly reporter light, replicate 1 = 3.23e5; firefly reporter light, replicate 2 = 2.58e5; Renilla control light, replicate 1 = 5.95e5; Renilla control light, replicate 2 = 6.86e5; inactive.
For Pfk (Phosphofructokinase) [DRSC39287], the entry reads inactive.
Knock-down of nAChRbeta1 (nicotinic Acetylcholine Receptor beta1) [DRSC08097] resulted in: firefly reporter light, replicate 1 = 1.51e5; firefly reporter light, replicate 2 = 1.39e5; Renilla control light, replicate 1 = 2.39e5; Renilla control light, replicate 2 = 3.24e5; inactive.
After knock-down of nAChRbeta1 (nicotinic Acetylcholine Receptor beta1) [DRSC08728], the screen gave firefly reporter light, replicate 1 = 1.10e6; firefly reporter light, replicate 2 = 8.51e5; Renilla control light, replicate 1 = 2.14e6; Renilla control light, replicate 2 = 1.94e6; inactive.
After knock-down of Acp98AB (Accessory gland protein 98AB) [DRSC21837], the screen gave firefly reporter light, replicate 1 = 6.51e5; firefly reporter light, replicate 2 = 7.24e5; Renilla control light, replicate 1 = 1.26e6; Renilla control light, replicate 2 = 1.15e6; inactive.
Against CG33235 [DRSC19641], the entry reads firefly reporter light, replicate 1 = 5.49e5; firefly reporter light, replicate 2 = 6.18e5; Renilla control light, replicate 1 = 4.65e6; Renilla control light, replicate 2 = 4.26e6; inactive.
